Measurements taken from doi:10.1101/493791.
No constants are given. Whether binding was seen depends on the method and setting. In cells and extracts the contact can be indirect. Some results given as binding are weak or reduced against the parent protein; the word gives no strength. For some assays here: Sequences can lack the tags named with a protein.

Amino acid sequences for entries named in this document (tags omitted). A change or cut given only in a name is not applied to a line headed by its entry. Chains listed by the source or under a name are the forms on record and can include a tag or linker.
UniProt Q969H0: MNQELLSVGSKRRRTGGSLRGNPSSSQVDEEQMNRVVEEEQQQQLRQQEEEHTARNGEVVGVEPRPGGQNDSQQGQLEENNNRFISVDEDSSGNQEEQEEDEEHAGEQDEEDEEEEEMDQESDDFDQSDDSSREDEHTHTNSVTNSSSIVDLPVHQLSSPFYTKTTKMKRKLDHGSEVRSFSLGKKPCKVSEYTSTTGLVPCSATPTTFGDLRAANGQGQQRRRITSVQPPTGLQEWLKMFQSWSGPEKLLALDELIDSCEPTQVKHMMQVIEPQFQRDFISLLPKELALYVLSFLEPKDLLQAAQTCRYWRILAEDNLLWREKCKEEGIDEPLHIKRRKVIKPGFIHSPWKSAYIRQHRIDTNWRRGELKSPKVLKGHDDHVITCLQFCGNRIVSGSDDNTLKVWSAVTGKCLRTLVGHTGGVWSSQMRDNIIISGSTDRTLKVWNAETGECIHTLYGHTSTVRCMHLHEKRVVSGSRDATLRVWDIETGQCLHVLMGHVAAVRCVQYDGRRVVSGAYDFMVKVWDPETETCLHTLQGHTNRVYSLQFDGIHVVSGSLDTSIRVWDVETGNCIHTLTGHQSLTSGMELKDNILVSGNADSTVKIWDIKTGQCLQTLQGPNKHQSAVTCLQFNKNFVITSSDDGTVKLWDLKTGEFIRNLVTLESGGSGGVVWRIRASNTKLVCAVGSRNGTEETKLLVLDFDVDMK
Flag-FBXW7αΔ106-126 (Q969H0, form named): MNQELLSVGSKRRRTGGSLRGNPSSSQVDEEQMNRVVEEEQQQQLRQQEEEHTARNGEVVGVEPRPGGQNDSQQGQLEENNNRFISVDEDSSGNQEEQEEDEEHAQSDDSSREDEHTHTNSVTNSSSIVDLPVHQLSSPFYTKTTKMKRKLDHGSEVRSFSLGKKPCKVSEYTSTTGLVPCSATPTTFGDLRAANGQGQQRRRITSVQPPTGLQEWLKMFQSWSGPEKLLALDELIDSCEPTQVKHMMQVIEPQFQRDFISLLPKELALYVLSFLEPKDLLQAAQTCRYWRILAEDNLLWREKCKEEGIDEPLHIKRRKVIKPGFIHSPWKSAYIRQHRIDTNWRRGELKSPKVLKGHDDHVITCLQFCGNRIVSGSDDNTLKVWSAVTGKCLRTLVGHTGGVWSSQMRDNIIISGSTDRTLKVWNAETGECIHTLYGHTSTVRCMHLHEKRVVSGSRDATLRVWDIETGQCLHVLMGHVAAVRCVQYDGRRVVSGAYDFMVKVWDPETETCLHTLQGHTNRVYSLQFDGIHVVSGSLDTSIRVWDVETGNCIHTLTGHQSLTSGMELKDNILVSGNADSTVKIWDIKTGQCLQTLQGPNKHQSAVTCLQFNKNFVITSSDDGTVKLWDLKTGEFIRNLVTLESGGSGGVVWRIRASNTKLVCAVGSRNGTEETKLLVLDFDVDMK

B1: FBXO45 (endogenous) (protein, UniProt P0C2W1 1-286)
chain: MAAPAPGAGAASGGAGCSGGGAGAGAGSGSGAAGAGGRLPSRVLELVFSYLELSELRSCALVCKHWYRCLHGDENSEVWRSLCARSLAEEALRTDILCNLPSYKAKIRAFQHAFSTNDCSRNVYIKKNGFTLHRNPIAQSTDGARTKIGFSEGRHAWEVWWEGPLGTVAVIGIATKRAPMQCQGYVALLGSDDQSWGWNLVDNNLLHNGEVNGSFPQCNNAPKYQIGERIRVILDMEDKTLAFERGYEFLGVAFRGLPKVCLYPAVSAVYGNTEVTLVYLGKPLDG
B2: HA-FBXO45 (protein, UniProt P0C2W1 1-286)
chain: B1 chain

Key:
Assay in all cases: co-IP
[1] = molecular target: T1, HA-FBXO45 (UniProt P0C2W1)
T1 sequence: B1 chain

[2] = molecular target: T2, Flag-FBXO45 (HEK-293T) (UniProt P0C2W1)
T2 sequence: B1 chain

[3] = molecular target: T3, Flag-FBXO45 (HeLa) (UniProt P0C2W1)
T3 sequence: B1 chain

[4] = molecular target: Flag-FBXW7αΔ106-126 (human) (UniProt Q969H0)
[5] = molecular target: Flag-FBXW7α (full-length) (human) (UniProt Q969H0)
[6] = molecular target: T4, Flag-MYCBP2(1951-2950) (UniProt O75592)
T4 sequence: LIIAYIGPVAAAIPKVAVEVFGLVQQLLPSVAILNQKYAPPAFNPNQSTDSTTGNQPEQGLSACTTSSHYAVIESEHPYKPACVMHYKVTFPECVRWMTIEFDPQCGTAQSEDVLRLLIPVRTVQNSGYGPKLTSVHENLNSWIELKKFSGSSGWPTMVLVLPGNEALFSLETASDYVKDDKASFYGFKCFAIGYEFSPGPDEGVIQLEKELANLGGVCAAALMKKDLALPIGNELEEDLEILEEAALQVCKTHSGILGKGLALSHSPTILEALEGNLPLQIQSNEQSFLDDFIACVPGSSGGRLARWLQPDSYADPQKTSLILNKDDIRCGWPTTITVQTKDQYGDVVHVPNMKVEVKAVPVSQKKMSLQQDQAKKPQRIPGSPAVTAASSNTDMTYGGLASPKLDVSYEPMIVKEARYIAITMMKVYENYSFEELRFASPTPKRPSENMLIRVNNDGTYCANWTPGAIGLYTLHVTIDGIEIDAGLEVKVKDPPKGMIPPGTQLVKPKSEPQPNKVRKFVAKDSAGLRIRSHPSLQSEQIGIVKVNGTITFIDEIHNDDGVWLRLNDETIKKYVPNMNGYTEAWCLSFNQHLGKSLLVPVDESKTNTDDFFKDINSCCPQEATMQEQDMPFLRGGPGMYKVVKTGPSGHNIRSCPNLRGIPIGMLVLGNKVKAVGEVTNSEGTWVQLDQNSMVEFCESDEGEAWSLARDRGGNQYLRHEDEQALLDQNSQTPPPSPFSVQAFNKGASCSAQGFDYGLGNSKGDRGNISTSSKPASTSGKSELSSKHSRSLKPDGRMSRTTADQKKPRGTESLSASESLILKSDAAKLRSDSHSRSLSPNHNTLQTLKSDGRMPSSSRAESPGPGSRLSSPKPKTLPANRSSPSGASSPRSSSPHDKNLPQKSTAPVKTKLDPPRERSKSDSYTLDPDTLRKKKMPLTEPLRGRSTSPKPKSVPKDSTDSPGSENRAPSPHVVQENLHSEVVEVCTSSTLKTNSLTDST

| Molecule | binding [4] | binding [6] | also measured |
| --- | --- | --- | --- |
| FBXW7α (endogenous, HEK-293T) (from UniProt Q969H0 1-707) |  |  | binding [1]: binds; binding [2]: binds |
| FBXW7α (endogenous, HeLa) (from UniProt Q969H0 1-707) |  |  | binding [3]: binds |
| MYCBP2 (endogenous) (from UniProt O75592 1-4678) | no binding |  |  |
| B1 | no binding | binds | binding [5]: binds |
| B2 |  | binds |  |
